No constants are given. Whether binding was seen depends on the method and setting. Binding seen in cells or lysates may run through a third protein. A result given as binding can be weak or reduced; the word gives no strength.
Target: endogenous B55α (66cl4 cells) (mouse (endogenous in 66cl4)) (UniProt Q6P1F6)
Assay: co-IP; 66cl4 cell lysate, α-B55α antibody with Protein A/G beads at 4 °C overnight, blot with α-B55α and α-Myc; cells with scrambled shRNA, Eya3 shRNA, or with and without FLAG-Eya3 overexpression

The chains behind the UniProt entries cited, without tags or fusion partners. Where a name states a change or a piece, a line headed by the entry shows the natural chain unless it says otherwise.
UniProt Q6P1F6: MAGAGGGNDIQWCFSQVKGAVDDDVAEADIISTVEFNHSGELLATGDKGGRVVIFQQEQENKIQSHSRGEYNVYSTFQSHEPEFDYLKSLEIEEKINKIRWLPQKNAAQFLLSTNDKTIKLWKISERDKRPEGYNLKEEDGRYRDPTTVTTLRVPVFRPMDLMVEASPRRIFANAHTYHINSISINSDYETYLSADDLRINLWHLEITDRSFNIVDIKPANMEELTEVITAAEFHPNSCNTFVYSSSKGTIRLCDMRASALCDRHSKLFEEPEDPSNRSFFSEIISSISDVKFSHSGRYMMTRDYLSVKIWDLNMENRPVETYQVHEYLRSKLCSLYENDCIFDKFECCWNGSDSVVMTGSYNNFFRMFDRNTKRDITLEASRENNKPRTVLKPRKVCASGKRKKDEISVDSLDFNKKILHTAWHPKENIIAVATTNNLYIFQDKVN
UniProt P01108: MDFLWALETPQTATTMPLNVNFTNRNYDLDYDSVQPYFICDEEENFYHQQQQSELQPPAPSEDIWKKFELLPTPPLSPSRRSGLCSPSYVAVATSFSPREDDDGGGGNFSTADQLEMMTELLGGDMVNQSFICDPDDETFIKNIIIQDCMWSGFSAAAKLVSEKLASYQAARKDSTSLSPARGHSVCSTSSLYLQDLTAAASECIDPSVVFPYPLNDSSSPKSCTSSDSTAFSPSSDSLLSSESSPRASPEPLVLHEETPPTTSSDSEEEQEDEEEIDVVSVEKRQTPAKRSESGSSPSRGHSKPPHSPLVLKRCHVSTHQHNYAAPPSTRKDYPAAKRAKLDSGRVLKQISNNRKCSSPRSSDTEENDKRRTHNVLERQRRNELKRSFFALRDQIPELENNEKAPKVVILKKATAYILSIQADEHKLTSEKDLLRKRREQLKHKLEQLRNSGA

With “endogenous Myc (66cl4 cells) (from UniProt P01108)” the binding was “binds”.
